Measurements from the supplement of paper PMC11732987, “Enantioselective OTUD7B fragment discovery through chemoproteomics screening and high-throughput optimisation” (Communications Chemistry, 2025).
The other results are listed elsewhere or left out. The data scatter; read single values as rough.

Sequences of proteins named here, by UniProt entry; tags and fusion partners are left off. A change or cut given only in a name is not applied to a line headed by its entry. Residues count along the entry.
UniProt Q9Y2Z4, 395-414: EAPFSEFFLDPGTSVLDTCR
UniProt Q9BW85, 271-292: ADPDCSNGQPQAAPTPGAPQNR
UniProt O75351: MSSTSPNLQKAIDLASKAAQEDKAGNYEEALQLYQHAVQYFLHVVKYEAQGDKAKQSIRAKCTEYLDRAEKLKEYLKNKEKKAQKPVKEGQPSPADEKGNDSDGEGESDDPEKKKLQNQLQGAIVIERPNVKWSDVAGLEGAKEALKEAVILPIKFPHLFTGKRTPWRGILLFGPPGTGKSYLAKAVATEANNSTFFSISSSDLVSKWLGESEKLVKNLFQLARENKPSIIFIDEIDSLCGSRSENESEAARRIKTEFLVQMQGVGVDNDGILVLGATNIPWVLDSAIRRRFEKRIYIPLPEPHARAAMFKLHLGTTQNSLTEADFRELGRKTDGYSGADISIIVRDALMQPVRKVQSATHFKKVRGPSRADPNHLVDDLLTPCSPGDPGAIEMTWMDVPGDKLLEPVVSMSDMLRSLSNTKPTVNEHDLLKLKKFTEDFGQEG
UniProt Q9NNW5: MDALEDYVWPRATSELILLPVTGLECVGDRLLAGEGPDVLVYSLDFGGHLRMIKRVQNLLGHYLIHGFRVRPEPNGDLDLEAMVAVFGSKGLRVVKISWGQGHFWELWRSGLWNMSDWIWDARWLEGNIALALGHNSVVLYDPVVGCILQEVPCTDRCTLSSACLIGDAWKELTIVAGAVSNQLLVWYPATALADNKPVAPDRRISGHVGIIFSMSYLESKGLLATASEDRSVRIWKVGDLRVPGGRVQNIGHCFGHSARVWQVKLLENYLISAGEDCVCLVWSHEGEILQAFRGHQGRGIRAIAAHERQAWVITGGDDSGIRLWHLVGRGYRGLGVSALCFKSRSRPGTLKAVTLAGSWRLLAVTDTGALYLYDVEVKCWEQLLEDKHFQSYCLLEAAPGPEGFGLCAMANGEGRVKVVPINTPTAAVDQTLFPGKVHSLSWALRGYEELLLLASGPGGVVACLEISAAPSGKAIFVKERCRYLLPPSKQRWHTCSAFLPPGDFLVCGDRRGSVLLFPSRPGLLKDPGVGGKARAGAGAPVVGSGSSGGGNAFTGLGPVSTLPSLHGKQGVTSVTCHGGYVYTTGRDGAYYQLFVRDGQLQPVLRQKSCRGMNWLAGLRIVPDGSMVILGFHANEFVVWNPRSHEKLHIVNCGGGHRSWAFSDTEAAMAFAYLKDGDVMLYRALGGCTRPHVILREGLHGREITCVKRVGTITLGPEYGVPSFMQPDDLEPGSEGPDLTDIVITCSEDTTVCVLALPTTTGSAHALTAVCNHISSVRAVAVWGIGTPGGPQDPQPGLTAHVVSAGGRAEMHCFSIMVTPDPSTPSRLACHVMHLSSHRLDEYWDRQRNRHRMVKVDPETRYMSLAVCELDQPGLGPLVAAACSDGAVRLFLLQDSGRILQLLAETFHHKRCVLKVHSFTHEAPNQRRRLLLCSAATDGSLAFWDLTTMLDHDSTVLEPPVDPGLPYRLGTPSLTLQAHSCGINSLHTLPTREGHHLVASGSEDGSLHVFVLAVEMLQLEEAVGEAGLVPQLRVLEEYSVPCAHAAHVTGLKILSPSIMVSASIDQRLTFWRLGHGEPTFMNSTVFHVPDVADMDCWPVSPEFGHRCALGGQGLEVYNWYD
UniProt Q8NCP5: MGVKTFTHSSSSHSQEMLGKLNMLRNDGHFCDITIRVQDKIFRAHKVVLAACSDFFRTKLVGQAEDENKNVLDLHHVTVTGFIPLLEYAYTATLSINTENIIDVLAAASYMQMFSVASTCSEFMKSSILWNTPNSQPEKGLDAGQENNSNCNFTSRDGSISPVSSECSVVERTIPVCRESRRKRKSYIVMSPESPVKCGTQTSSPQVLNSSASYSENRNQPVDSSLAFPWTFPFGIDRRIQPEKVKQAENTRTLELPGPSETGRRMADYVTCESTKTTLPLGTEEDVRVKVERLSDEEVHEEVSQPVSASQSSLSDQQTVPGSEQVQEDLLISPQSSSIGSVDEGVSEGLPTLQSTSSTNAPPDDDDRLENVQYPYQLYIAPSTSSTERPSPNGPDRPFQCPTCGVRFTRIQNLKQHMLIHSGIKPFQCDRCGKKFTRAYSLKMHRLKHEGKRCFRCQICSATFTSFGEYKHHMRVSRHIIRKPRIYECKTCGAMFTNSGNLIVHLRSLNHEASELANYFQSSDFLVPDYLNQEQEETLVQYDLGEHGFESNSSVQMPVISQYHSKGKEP
UniProt P57081: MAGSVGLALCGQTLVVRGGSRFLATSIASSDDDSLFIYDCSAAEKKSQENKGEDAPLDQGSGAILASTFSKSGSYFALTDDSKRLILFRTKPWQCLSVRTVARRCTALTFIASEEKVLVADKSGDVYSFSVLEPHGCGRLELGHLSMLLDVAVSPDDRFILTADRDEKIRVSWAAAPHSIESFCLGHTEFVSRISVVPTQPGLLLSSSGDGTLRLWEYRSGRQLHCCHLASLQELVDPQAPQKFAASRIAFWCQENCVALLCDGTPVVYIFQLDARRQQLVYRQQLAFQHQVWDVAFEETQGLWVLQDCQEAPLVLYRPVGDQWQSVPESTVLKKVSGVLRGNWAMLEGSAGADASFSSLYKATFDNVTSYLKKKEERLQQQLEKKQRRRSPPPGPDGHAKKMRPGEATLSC
UniProt Q6PJI9: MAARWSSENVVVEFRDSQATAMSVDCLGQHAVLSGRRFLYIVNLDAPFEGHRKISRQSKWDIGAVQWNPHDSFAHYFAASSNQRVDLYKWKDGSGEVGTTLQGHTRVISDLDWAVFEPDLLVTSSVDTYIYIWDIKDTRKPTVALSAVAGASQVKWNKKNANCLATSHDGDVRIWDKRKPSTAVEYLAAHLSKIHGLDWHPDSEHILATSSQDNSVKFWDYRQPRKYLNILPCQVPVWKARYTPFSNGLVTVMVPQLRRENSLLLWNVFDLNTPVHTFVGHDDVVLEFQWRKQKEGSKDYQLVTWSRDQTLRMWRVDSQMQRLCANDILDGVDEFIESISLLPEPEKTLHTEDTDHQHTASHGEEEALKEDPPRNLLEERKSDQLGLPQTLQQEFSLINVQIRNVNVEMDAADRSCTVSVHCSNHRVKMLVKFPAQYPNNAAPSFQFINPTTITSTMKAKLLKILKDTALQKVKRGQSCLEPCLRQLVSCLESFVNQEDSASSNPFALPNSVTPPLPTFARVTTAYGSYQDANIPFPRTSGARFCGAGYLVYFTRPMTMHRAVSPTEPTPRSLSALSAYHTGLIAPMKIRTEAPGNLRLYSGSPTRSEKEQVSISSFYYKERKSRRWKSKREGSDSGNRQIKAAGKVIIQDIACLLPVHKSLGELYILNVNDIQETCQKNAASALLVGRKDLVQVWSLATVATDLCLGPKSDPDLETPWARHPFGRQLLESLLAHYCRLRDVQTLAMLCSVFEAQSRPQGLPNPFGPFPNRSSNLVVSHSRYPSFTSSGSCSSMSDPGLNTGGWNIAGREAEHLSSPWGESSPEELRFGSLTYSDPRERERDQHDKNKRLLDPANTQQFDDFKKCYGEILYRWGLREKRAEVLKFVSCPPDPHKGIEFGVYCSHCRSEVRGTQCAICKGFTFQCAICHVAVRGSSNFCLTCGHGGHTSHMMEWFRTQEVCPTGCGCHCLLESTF
UniProt Q8IZH2: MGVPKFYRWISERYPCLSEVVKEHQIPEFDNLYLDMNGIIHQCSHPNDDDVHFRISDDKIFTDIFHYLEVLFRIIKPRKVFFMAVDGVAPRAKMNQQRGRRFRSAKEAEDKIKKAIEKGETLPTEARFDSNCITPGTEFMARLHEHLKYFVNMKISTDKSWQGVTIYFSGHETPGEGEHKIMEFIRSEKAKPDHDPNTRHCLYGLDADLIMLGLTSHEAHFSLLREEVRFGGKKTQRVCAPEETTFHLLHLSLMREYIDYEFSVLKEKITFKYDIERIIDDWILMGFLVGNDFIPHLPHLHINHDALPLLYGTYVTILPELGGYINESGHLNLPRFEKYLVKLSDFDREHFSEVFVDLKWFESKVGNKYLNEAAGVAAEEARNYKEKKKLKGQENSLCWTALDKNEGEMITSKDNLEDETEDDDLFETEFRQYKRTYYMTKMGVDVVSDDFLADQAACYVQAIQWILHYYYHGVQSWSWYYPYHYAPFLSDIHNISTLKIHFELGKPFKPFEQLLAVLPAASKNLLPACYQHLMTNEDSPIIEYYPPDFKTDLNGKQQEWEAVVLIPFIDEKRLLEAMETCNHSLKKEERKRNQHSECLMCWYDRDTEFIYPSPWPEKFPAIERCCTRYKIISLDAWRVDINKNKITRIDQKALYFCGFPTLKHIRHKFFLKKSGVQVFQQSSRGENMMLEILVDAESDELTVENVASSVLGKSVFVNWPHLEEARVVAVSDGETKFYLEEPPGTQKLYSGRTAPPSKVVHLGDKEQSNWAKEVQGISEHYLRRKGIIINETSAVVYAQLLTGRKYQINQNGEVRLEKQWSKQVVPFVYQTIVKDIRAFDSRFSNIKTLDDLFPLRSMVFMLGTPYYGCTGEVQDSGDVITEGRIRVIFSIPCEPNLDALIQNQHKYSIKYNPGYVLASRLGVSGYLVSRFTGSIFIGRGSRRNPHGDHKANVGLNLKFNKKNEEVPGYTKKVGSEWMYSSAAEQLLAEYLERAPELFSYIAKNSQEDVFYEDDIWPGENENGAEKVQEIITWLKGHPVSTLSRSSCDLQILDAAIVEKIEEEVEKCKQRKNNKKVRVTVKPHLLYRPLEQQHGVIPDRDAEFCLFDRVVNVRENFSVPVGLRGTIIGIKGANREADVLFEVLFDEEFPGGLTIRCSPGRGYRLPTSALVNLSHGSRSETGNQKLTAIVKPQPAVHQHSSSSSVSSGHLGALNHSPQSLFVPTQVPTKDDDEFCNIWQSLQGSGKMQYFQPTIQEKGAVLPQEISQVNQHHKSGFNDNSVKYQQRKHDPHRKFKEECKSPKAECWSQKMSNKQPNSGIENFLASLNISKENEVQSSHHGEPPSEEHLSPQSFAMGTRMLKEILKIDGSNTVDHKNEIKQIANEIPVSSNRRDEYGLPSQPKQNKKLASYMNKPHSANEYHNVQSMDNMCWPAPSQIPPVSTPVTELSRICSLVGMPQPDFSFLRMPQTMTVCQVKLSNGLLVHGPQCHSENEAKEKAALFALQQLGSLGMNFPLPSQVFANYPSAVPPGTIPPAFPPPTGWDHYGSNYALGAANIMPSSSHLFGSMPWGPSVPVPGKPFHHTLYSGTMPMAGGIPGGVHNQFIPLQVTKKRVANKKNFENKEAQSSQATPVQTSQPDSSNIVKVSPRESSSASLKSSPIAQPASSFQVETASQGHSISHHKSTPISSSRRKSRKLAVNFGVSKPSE
UniProt O75083, 490-511: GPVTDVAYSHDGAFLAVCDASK
UniProt Q9HAV4: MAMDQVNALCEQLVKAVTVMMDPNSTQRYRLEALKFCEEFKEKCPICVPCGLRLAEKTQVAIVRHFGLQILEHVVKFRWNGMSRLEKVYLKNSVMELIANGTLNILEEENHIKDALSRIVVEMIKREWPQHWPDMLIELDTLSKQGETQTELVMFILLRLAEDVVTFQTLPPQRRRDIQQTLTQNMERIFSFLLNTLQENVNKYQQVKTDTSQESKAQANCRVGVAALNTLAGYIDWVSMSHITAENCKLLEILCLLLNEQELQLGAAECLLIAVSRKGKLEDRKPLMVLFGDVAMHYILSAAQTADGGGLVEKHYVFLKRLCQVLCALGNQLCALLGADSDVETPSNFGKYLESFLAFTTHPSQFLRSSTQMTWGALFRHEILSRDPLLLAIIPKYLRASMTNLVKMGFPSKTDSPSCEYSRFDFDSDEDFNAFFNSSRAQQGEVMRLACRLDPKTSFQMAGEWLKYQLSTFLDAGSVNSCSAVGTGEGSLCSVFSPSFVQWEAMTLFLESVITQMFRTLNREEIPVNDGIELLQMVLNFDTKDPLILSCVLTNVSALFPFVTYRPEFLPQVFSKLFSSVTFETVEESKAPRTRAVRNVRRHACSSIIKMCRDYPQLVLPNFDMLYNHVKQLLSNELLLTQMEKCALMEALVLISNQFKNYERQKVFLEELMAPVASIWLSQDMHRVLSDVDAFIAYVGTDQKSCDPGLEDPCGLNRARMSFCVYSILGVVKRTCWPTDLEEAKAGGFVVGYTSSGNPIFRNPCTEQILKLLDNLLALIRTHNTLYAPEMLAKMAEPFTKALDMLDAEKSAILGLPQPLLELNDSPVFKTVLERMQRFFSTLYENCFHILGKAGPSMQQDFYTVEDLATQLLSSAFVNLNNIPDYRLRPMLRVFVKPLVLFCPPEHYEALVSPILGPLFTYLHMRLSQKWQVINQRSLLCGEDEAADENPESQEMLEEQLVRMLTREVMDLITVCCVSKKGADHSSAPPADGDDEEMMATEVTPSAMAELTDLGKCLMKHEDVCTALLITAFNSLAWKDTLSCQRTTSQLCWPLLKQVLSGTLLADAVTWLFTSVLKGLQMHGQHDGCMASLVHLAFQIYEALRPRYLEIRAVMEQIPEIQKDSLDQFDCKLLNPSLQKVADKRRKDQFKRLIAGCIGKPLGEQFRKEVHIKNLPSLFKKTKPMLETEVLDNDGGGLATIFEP

Columns and labels:
[1] = compound: ClCC(=O)N[C@@H]1CCCc2ccccc12; experiment: log2 mean competition ratio of IA-DTB cysteine labelling (DMSO/compound) (log2 ratio); higher = stronger cysteine engagement by compound; conditions: treatment time: 4 h, cell line lysate: HEK293T
Procedure: (§1)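 IA-DTB competitive cysteine chemoproteomics in HEK293T RIPA lysate. Lysates were treated with compound 29 or 30 at 50 or 200 µM for 4 h, then IA-DTB (500 µM, 1 h), trypsin-digested, NeutrAvidin-enriched and analysed by diaPASEF. Competition ratio = intensity DMSO / intensity compound (n=4 treated, n=64 DMSO); binding: mean log2 CR ≥ 1 and p ≤ 0.05 plus QC filters. Target is the cysteine site.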

[2] = compound: ClCC(=O)N[C@H]1CCCc2ccccc12; experiment: as above; conditions: treatment time: 4 h, cell line lysate: HEK293T
Procedure: as §1

| Target | log2 mean competition ratio ([1]; 50 µM) | log2 mean competition ratio ([1]; 200 µM) | log2 mean competition ratio ([2]; 50 µM) | log2 mean competition ratio ([2]; 200 µM) |
| --- | --- | --- | --- | --- |
| YARS2 C413 (UniProt Q9Y2Z4) | -0.206 | -0.564 | 0.00505 | 0.206 |
| VPS53 C764 (UniProt Q5VIR6) | -0.0668 | -0.167 | -0.161 | -0.00988 |
| VPS4A C60 (UniProt Q9UN37) | 0.273 | 0.0433 | 0.419 | 0.0967 |
| VPS53 C365 (UniProt Q5VIR6) | 0.191 | -0.156 | -0.478 | 0.0589 |
| YJU2 C46 (UniProt Q9BW85) | -0.118 | -0.198 | 0.0558 | -0.00287 |
| YDJC C170 (UniProt A8MPS7) | 0.218 | -0.00631 | 0.333 | 0.172 |
| VPS37A C325 (UniProt Q8NEZ2) | -0.23 | 0.164 | 0.322 | -0.0326 |
| XRCC1 C132 | 0.143 | -0.0373 | -0.0679 | -0.0169 |
| VPS4B C240 (UniProt O75351) | 0.253 | 0.225 | -0.00497 | 0.25 |
| WASHC5 C969 (UniProt Q12768) | -0.216 | 0.311 | 0.402 | 0.593 |
| WDR6 C1107 (UniProt Q9NNW5) | -2.06e-05 | -0.169 | 0.234 | -0.0649 |
| ZBTB44 C151 (UniProt Q8NCP5) | -0.23 | 0.493 | -0.2 | 0.387 |
| YEATS2 C102 (UniProt Q9ULM3) | 0.674 | -0.146 | -0.711 | 0.225 |
| WDR4 C412 (UniProt P57081) | 0.351 | 0.152 | 0.174 | 0.216 |
| YJU2 C275 (UniProt Q9BW85) | -0.192 | 0.0418 | -0.427 | -0.0869 |
| WDR59 C888 (UniProt Q6PJI9) | -0.194 | -0.142 | -0.0386 | -0.158 |
| XRN1 C1304 (UniProt Q8IZH2) | 0.00295 | 0.314 | 0.19 | 0.331 |
| WDR1 C507 (UniProt O75083) | 0.068 | -0.00611 | -0.424 | 0.108 |
| VPS50 C430 (UniProt Q96JG6) | -0.0963 | 0.116 | -0.55 | -0.156 |
| VPS41 C638 (UniProt P49754) | -0.124 | 0.863 | -0.136 | 0.659 |
| XPO5 C1052 (UniProt Q9HAV4) | 0.217 | -0.36 | 0.0269 | 0.19 |

Just log2 mean competition ratio ([1]; 200 µM), log2 mean competition ratio ([1]; 50 µM) and log2 mean competition ratio ([2]; 200 µM) (two entries from above):
Target | log2 mean competition ratio ([1]; 200 µM) | log2 mean competition ratio ([1]; 50 µM) | log2 mean competition ratio ([2]; 200 µM)
YDJC C170 (UniProt A8MPS7) | -0.00631 | 0.218 | 0.172
VPS37A C325 (UniProt Q8NEZ2) | 0.164 | -0.23 | -0.0326
